Consider 69 molecules from PubChem BioAssay AID662 (National Center for Advancing Translational Sciences (NCATS), 2007).

The other results are listed elsewhere or left out. These are further read-outs of the screen, such as a control signal, another cell line or another target. No call is given for them. The list favours compounds with an active or inconclusive main result. The note in brackets gives the kind of curve behind each potency; many fits are weak.

The assay in a line: Cell signaling CRE-BLA (Fsk stim). Conditions: CHO CRE-bla reporter (cAMP response element driving beta-lactamase), forskolin EC10, beta-lactamase ratio; measured here: 460 nm blue channel. In outline: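 Forskolin analogue NKH 477 at EC10 stimulated CRE-driven beta-lactamase in CHO cells alongside compound dilution series. Beta-lactamase was measured with CCF4, excitation 405 nm, emission ratio 460/530 nm.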
As usually defined, the AC50 is the concentration giving half of the maximal activity seen. As to `CCn1cc(C(=O)NCc2ccc3c(c2)OCO3)c(=O)c2cc(S(=O)(=O)N3CCOCC3)ccc21`, the AC50 is 10 µM [rising, partial curve].
To `CCC(=O)Nc1c(C#N)c2nc3ccccc3nc2n1-c1ccc(C)cc1` belongs 2 µM [rising, full curve]; to `CCCCSc1nc(CCC)cc(=O)[nH]1`, 15.8 µM [rising, partial curve]; to `O=c1c(-c2cc(F)cc(F)c2)nc2cnc(Nc3ccccc3)nc2n1C[C@H]1CCCO1`, 20 µM [rising, partial curve].
To `CCOCCCNC(=O)c1[nH]c(C)c(C(C)=O)c1C` belongs 5.01 µM [falling, single point].
The same measure for `CC(C)Cn1c(=O)c(C(=O)Nc2ccccc2S(N)(=O)=O)c(O)c2ccccc21`: 25.1 µM [falling, single point].
`CCCCNC(=O)CCC(=O)Nc1ncc(-c2ccc(C)cc2)n1C`: the AC50 is 0.794 µM [falling, full curve, poor fit].
The same measure for `C=C(C)COc1ccc(-c2nc(N)ncc2Oc2ccc(OC)cc2)c(O)c1`: 2.51 µM [rising, full curve].
For the molecule `CN(C)/C=C1\C(=O)c2ccc(N(C)C)nc2CC1c1ccccc1` (centres undefined), the AC50 is 12.6 µM [rising, partial curve].
For the molecule `Cc1c(C(=O)Nc2ccc3oc(-c4cccnc4)nc3c2)oc2ccccc12`, the AC50 is 2.51 µM [rising, full curve].
To `CCOC(=O)c1ccc2[nH]cc(C(C)=O)c(=O)c2c1` belongs 0.02 µM [falling, full curve, poor fit]; to `Brc1c(CSc2nnc(-c3ccco3)o2)nc2ccccn12`, 20 µM [rising, single point].
To `CNc1nc(NC)nc(-n2c(C(F)(F)F)nc3ccccc32)n1` belongs 15.8 µM [rising, single point]; to `CCOC(=O)c1c(C)c(C(=O)Nc2cc(OC)ccc2OC)c(C)n1CC`, 6.31 µM [rising, partial curve].
The same measure for `COCCNC(=O)c1cc2c(-c3ccc(Cl)cc3)nn(C)c2s1`: 3.98 µM [rising, full curve].
Regarding `CC(=O)Nc1ccc(OC[C@@H](O)CNC(C)C)cc1`, the AC50 was 31.6 µM [falling, single point].
The same measure for `COc1ccc(OC)c(NC(=O)CSc2nc3c(c(=O)n(C)c(=O)n3C)n2C)c1`: 2 µM [rising, full curve]; for `COc1ccc(C(=O)CSc2nnc(-c3ccccc3)o2)cc1`: 0.00316 µM [falling, full curve, poor fit]; for `Cc1cc2n(n1)C(c1ccc(O)cc1)Nc1ccccc1-2` (centres undefined): 25.1 µM [rising, single point].
The same measure for `CCCCNc1nc(C)nc2c1nc(-c1ccccc1)n2CCN1CCCCC1`: 12.6 µM [rising, single point]; for `CN(CCNC(=O)c1cccc(N2CCCC2=O)c1)Cc1ccccc1`: 0.126 µM [rising, partial curve, poor fit].
With `CCNc1ncc2nc(-c3ccc(Cl)cc3)c(=O)n(-c3ccccc3)c2n1`, the AC50 is 3.98 µM [rising, partial curve].
Regarding `CCOC(=O)CSc1nnnn1-c1cc(OC)ccc1OC`, the AC50 is 3.16 µM [falling, single point].
`CN=C(Nc1cc(C)nn1CCC#N)c1ccc(F)cc1`: the AC50 was 25.1 µM [rising, single point].
The same measure for `CCOC(=O)c1cc(-c2ccc(F)cc2)n(CC(=O)Nc2nccs2)c1C`: 25.1 µM [falling, single point].
The same measure for `CCOC(=O)c1cncc(NC(=O)c2ccccc2)c1`: 25.1 µM [rising, single point]; for `CCc1c(C)c2cc(Cl)c(O)c(CN(C)C)c2oc1=O`: 10 µM [rising, partial curve]; for `Cc1cc(=O)cc(C)n1-c1ccccc1N1CCOCC1`: 3.98 µM [falling, single point].
To `Nn1c(SCc2cccc3ccccc23)nnc1-c1ccco1` belongs 3.98 µM [falling, full curve, poor fit]; to `COc1cc2c(cc1OC)C1=C(C#N)CN(CC(=O)O)CN1CC2`, 5.01 µM [rising, partial curve].
Turning to `C=CCn1c(SCc2nc(N)nc(N3CCCCC3)n2)nnc1-c1ccco1`, the AC50 is 10 µM [rising, single point].
The same measure for `CCCN(CCC)c1nc(NC2CCN(C(=O)OCC)CC2)nc(OC)n1`: 25.1 µM [falling, single point].
To `Cc1cc2cc(CN(Cc3ccc4c(c3)OCO4)C(=O)c3ccco3)c(=O)[nH]c2cc1C` belongs 10 µM [rising, partial curve]; to `O=C1C2C3C=CC(O3)C2C(=O)N1CC(O)c1ccccc1` (centres undefined), 0.00398 µM [falling, full curve, poor fit].
Turning to `CCC(C)Sc1nc2c(c(=O)[nH]c(=O)n2C)n1CC(O)COc1cccc2ccccc12` (centres undefined), the AC50 is 12.6 µM [rising, partial curve].
To `O=c1c(-c2ccc(F)cc2)nc2cnc(N3CCOCC3)nc2n1C1CC1` belongs 6.31 µM [rising, partial curve]; to `CN(C)S(=O)(=O)N1CCc2ccccc2C1`, 0.00794 µM [falling, full curve, poor fit].
Take `Cc1cc(C)c2ccc(N)nc2c1O`: the AC50 is 0.00398 µM [falling, full curve, poor fit].
To `Cc1cc2c(C)cc(=O)oc2c2c1NCCC2` belongs 12.6 µM [rising, partial curve]; to `O=C(c1ccccc1C(=O)N1CCN(c2ccccc2F)CC1)N1CCN(c2ccccc2F)CC1`, 12.6 µM [falling, partial curve].
The same measure for `CSc1nc(N2CCOCC2)c2ccccc2n1`: 10 µM [rising, partial curve].
To `CS(=O)(=O)CCC(C(=O)N1CCOCC1)N1C(=O)c2cc(Cl)c(Cl)cc2C1=O` (centres undefined) belongs 0.794 µM [rising, full curve].
Take `CCn1cc(C(=O)N2CCN(Cc3ccc4c(c3)OCO4)CC2)c2cc(OC)c(OC)cc2c1=O`: the AC50 was 10 µM [rising, partial curve].
To `Clc1ccccc1-c1nnc2sc(-c3ccccn3)nn12` belongs 10 µM [rising, single point]; to `CC(=O)c1sc(NC(=O)c2ccc(Cn3cc(Br)cn3)o2)nc1C`, 10 µM [rising, single point]; to `O=C(NCCN1CCN(c2cccc(Cl)c2)CC1)c1cccn2c(=O)c3ccccc3nc12`, 2.51 µM [rising, partial curve].
For the molecule `CCC(C)Sc1nc2c(cnn2-c2ccc(C)cc2)c(=O)[nH]1` (centres undefined), the AC50 is 2.51 µM [rising, full curve].
To `COc1ccc(Br)cc1C(=O)Nc1cccc(-c2nnc(-c3ccco3)o2)c1` belongs 0.2 µM [rising, partial curve].
To `Cn1nnnc1SCC(=O)Nc1nc(-c2ccccc2)c(-c2ccccc2)o1` belongs 1 µM [falling, full curve, poor fit]; to `CCOc1cccc(C(=O)N(Cc2ccco2)C2CCS(=O)(=O)C2)c1` (centres undefined), 3.98 µM [falling, single point].
To `COC(=O)c1cc(OC)c(OC)cc1NC(=O)CN1CCCCC1` belongs 31.6 µM [falling, single point]; to `COc1cc(C2C(C#N)=C(C)NC3=C2C(=O)c2ccccc23)cc(OC)c1OC` (centres undefined), 3.16 µM [rising, partial curve].
Take `COc1ccccc1C(=O)N1CCCC(c2nc(-c3cc(OC)c(OC)c(OC)c3)no2)C1` (centres undefined): the AC50 is 10 µM [rising, partial curve].
To `Cc1cccc(CCNS(=O)(=O)c2cnc[nH]2)c1` belongs 0.02 µM [falling, full curve, poor fit].
The same measure for `Cn1c(Br)nc2c1c(=O)n(CC(O)COc1ccccc1)c(=O)n2C` (centres undefined): 20 µM [rising, partial curve].
To `CN1CCN(C(=O)c2cc(-c3ccccc3)on2)CC1` belongs 0.0501 µM [falling, full curve]; to `c1ccc(-c2cnnc(SCc3cn4cccnc4n3)n2)cc1`, 10 µM [rising, partial curve]; to `CCc1cc2c(N3CCN(c4nnc(CC)s4)CC3)ncnc2s1`, 12.6 µM [falling, partial curve].
In the case of `Cc1cc(C)n(-c2ccc(C(=O)OCn3nnc4ccccc4c3=O)cc2)n1`, the AC50 is 12.6 µM [rising, single point].
In the case of `O=C(O)CCC(=O)N1CCc2cc(S(=O)(=O)NC3CCCC3)ccc21`, the AC50 is 0.398 µM [falling, full curve].
To `CCN(CC)CCCn1c(=S)[nH]c2ccc(Cl)cc2c1=O` belongs 10 µM [rising, single point]; to `COc1cccc(CC(=O)NCC2COc3ccccc3O2)c1OC` (centres undefined), 7.94 µM [rising, partial curve]; to `Cc1ccc(S(=O)(=O)NC(CN2CCOCC2)=NCCNS(=O)(=O)c2ccccc2)cc1`, 0.1 µM [falling, partial curve].
To `CC(=O)Nc1nc2n(n1)C(c1ccc(Cl)cc1)C=C(C)N2` (centres undefined) belongs 25.1 µM [rising, single point].
To `O=c1c2oc3ccccc3c2ncn1Cc1ccccc1F` belongs 10 µM [rising, single point]; to `Cc1nc2c([nH]1)c(=O)n(C)c(=O)n2Cc1ccco1`, 20 µM [rising, single point].
Regarding `COc1ccc(-c2cc3nc(C)cc(NCCO)n3n2)cc1`, the AC50 is 12.6 µM [rising, partial curve].
To `CC(=O)OCC1OC(n2ccc(=O)[nH]c2=O)C(O)C1O` (centres undefined) belongs 0.00794 µM [falling, full curve].
In the case of `COc1cccc(C(=O)Nc2cccc(-c3nnc(-c4ccccc4)o3)c2)c1`, the AC50 was 31.6 µM [falling, single point].
